Assay results from patent publication US20100047253A1.

What was measured:
[1] = target: Human IL-13-Mouse IL-13 Helix D (human IL-13 with mouse Helix D); test: ELISA on secreted IL-13 chimeric proteins; '*' denotes that the binding was weak in the sandwich ELISA
[2] = target: Human IL-13-Mouse IL-13 Helix D (human IL-13 with mouse Helix D); test: ELISA on secreted IL-13 chimeric proteins

B1: mAb 713 (antibody, V domains shown)
VH: EVQLLESGGGLVQPGGSLRLSCAASGFTFSSYAMSWVRQAPGKGLEWVSAFSGSGGSTYYADSVKGRFTISRDNSKNTLYLQMNSLRAEDTAVYYCVQDGLGPYFYNYGMDVWGQGTTVTVSS
VL: SYELTQPPSVSVSPGQTASITCSGDKLGDKYTCWFQQKPGQSPVLVIYHDSKRPSGIPERFSGSNSGDTATLTISGTQAMDEADYYCQAWDSSTYVFGTGTKVTVLG
[1]
  binding: binds

B2: mAb 731 (antibody, V domains shown)
VH: B1 VH
VL: B1 VL with T32A
[1]
  binding: binds

B3: mAb 602 (antibody, V domains shown)
VH: EVQLVESGGGLVKPGGSLRLSCAASGFTFSNAWMSWVRQAPGKGLEWVGRIRSKIDGGTINYAAPVKGRFTISRDDSKNTLYLQMNSLKTEDTAVYYCATDQVGAYYGDYYGMDVWGQGTTVTVSS
VL: SYELTQPPSVSVSPGQTARITCSGDALPEKYAYWYQQKSGQAPVLVIYEDTKRPSGIPERFSGSSSGTMATLTISGAQVEDEADYYCYSTDSSGNHGVFGGGTKLTVLG
[2]
  binding: binds

B4: mAb 623 (antibody, V domains shown)
VH: B3 VH with K54E, I60T
VL: B3 VL with T51S, Y88H
[2]
  binding: binds

B5: mAb 643 (antibody, V domains shown)
VH: B3 VH with K54E, I60T, K89R
VL: B3 VL with T51S, Y88H
[2]
  binding: binds

Residue numbers refer to the chain shown, from its start. No constants are given. Whether binding was seen depends on the method and setting. Binding can be weak; no strength is given.
